Reference: PMC12022026
Results are given in words; binding and its absence hold for the method and conditions named. In cells and extracts the contact can be indirect. Binding can be weak; no strength is given.

Molecular target: T1, stimulator of interferon genes (STING), endogenous in mouse primary cardiomyocytes (mouse (endogenous in mouse primary cardiomyocytes)) (UniProt Q3TBT3)
T1 sequence: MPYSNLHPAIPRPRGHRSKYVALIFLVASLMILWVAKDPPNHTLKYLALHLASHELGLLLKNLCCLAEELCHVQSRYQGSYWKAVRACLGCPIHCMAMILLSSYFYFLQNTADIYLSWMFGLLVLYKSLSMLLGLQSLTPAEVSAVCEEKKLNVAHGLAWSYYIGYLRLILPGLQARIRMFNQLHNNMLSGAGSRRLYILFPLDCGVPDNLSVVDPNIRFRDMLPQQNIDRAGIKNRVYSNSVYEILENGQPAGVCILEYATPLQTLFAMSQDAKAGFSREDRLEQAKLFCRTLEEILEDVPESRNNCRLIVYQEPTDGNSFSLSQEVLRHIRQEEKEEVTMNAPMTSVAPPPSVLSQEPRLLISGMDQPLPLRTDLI
Test: co-IP; endogenous proteins of mouse primary cardiomyocytes post-A/R, with or without short cGAMP stimulation; IP with STING or GPX4 antibody, immunoblot for the other

binding: binds
Substance: glutathione peroxidase 4 (GPX4), endogenous in mouse primary cardiomyocytes
